# Reference: patent US20100137309A1, “FUNGICIDES PHENYL-PYRIMIDNYL-AMINO DERIVATIVES” (priority 2007, published 2010)
# Some entries share one result that the patent states for a list of compounds.
# What was measured:
# [1] = system: Pyrenophora teres; assay: In vivo test on Pyrenophora teres (barley net blotch), barley Express variety (Example K); conditions: 500 ppm; barley plants (Express) sprayed 24 hours before contamination; grading 12 days after contamination
# [2] = system: Mycosphaerella graminicola; assay: In vivo test on Mycosphaerella graminicola (wheat leaf spot); conditions: 500 ppm; wheat plants (Scipion) sprayed 24 hours before contamination; grading 21 to 28 days after contamination
# [3] = system: Pyricularia grisea; format: in vivo; conditions: 500 ppm; rice plants (Koshihikari) sprayed 24 hours before contamination; grading 6 days after contamination
# [4] = system: Alternaria brassicae; assay: In vivo test on Alternaria brassicae (leaf spot of cruciferous plant); conditions: 500 ppm; radish plants (Pernot) sprayed 24 hours before contamination; grading 6 to 7 days after contamination
SMILES,good or total protection [1],good or total protection [2],good or total protection [3],good protection [4]
CCC(CC)NC(=O)c1cc(-c2ccnc(Nc3cccc(Cl)c3)n2)ccn1 [Compound A44],at least 70%,,,
CCC(COC)NC(=O)c1cc(-c2ccnc(Nc3cccc(Cl)c3)n2)ccn1 (stereo not drawn) [Compound A45],,at least 70%,,
"CN(C)C(=O)c1cc(-c2ccnc(Nc3cccc(Cl)c3)n2)ccn1 [Compound A76, 4-{2-[(3-chlorophenyl)amino]pyrimidin-4-yl}-N,N-dimethylpyridine-2-carboxamide]",,,at least 70%,
COCCCNC(=O)c1cc(-c2ccnc(Nc3cccc(Cl)c3)n2)ccn1 [Compound A39],,at least 70%,,
CC(=NO)c1cc(-c2ccnc(Nc3cccc(Cl)c3)n2)ccn1 [Compound A91],at least 70%,,at least 70%,
CCOC1CCC(NC(=O)c2cc(-c3ccnc(Nc4cccc(Cl)c4)n3)ccn2)CC1 (stereo not drawn) [Compound A61],at least 70%,at least 70%,,at least 70%
